Results reported in publication PMC6797079.
Positions count from the first letter of the chain named. In names and notes the source's numbering stands. These are yes or no findings as the source states them, for the method shown. Binding seen in cells or lysates may run through a third protein. Some results given as binding are weak or reduced against the parent protein; the word gives no strength. Tags and fused reporters may be left off the sequences shown. Values belong to the binder of their own block, whether it stands above or below them.

How the values were obtained:
[1] = biological target: sodium/iodide symporter (NIS), wild type, MYC- or HA-tagged (human) (UniProt Q92911); experiment: proximity ligation; Duolink In Situ (Detection Reagents Red) with anti-MYC and anti-HA antibodies on fixed, permeabilised SW1736 and HeLa cells 48 hours after transfection; signal if the two are fewer than 40 nm apart
[2] = biological target: sodium/iodide symporter (NIS), wild type, MYC- or HA-tagged (human) (UniProt Q92911); experiment: co-IP; SW1736 and HeLa cells co-transfected with NIS-MYC and NIS-HA, lysed; precipitated with mouse anti-MYC and blotted with anti-HA, and the reverse (rabbit anti-HA, blot anti-MYC)
[3] = substrate: NIS Y242A, MYC- or HA-tagged (human) (UniProt Q92911); experiment: proximity ligation; Duolink In Situ (Detection Reagents Red) with anti-MYC and anti-HA antibodies on fixed, permeabilised SW1736 and HeLa cells 48 hours after transfection; signal if the two are fewer than 40 nm apart
[4] = substrate: NIS A525F, MYC- or HA-tagged (human) (UniProt Q92911); experiment: as above
[5] = substrate: NIS T243A, MYC- or HA-tagged (human) (UniProt Q92911); experiment: as above
[6] = substrate: NIS Y242A, cerulean- or citrine-tagged (human) (UniProt Q92911); experiment: FRET or BRET; SW1736 and HeLa cells cotransfected with NIS variants conjugated to cerulean or citrine, spinning disk confocal imaging 48 hours post-transfection; corrected FRET (arbitrary units) after subtraction of CFP and YFP cross talk
[7] = substrate: NIS Q471A, MYC- or HA-tagged (human) (UniProt Q92911); experiment: proximity ligation; Duolink In Situ (Detection Reagents Red) with anti-MYC and anti-HA antibodies on fixed, permeabilised SW1736 and HeLa cells 48 hours after transfection; signal if the two are fewer than 40 nm apart
[8] = substrate: NIS Q471A, cerulean- or citrine-tagged (human) (UniProt Q92911); experiment: FRET or BRET; SW1736 and HeLa cells cotransfected with NIS variants conjugated to cerulean or citrine, spinning disk confocal imaging 48 hours post-transfection; corrected FRET (arbitrary units) after subtraction of CFP and YFP cross talk
[9] = substrate: NIS D237A, cerulean- or citrine-tagged (human) (UniProt Q92911); experiment: as above
[10] = substrate: NIS T243A, cerulean- or citrine-tagged (human) (UniProt Q92911); experiment: as above
[11] = substrate: NIS A525F, cerulean- or citrine-tagged (human) (UniProt Q92911); experiment: as above
[12] = substrate: NIS D237A, MYC- or HA-tagged (human) (UniProt Q92911); experiment: proximity ligation; Duolink In Situ (Detection Reagents Red) with anti-MYC and anti-HA antibodies on fixed, permeabilised SW1736 and HeLa cells 48 hours after transfection; signal if the two are fewer than 40 nm apart

binding [1]: binds
binding [2]: binds
B1: sodium/iodide symporter (NIS), wild type, MYC- or HA-tagged (protein, UniProt Q92911 1-643)
chain: MEAVETGERPTFGAWDYGVFALMLLVSTGIGLWVGLARGGQRSAEDFFTGGRRLAALPVGLSLSASFMSAVQVLGVPSEAYRYGLKFLWMCLGQLLNSVLTALLFMPVFYRLGLTSTYEYLEMRFSRAVRLCGTLQYIVATMLYTGIVIYAPALILNQVTGLDIWASLLSTGIICTFYTAVGGMKAVVWTDVFQVVVMLSGFWVVLARGVMLVGGPRQVLTLAQNHSRINLMDFNPDPRSRYTFWTFVVGGTLVWLSMYGVNQAQVQRYVACRTEKQAKLALLINQVGLFLIVSSAACCGIVMFVFYTDCDPLLLGRISAPDQYMPLLVLDIFEDLPGVPGLFLACAYSGTLSTASTSINAMAAVTVEDLIKPRLRSLAPRKLVIISKGLSLIYGSACLTVAALSSLLGGGVLQGSFTVMGVISGPLLGAFILGMFLPACNTPGVLAGLGAGLALSLWVALGATLYPPSEQTMRVLPSSAARCVALSVNASGLLDPALLPANDSSRAPSSGMDASRPALADSFYAISYLYYGALGTLTTVLCGALISCLTGPTKRSTLAPGLLWWDLARQTASVAPKEEVAILDDNLVKGPEELPTGNKKPPGFLPTNEDRLFFLGQKELEGAGSWTPCVGHDGGRDQQETNL

binding [3]: binds
B2: NIS Y242A, MYC- or HA-tagged (protein, UniProt Q92911 1-643)
chain: B1 chain with Y242A

binding [4]: binds
B3: NIS A525F, MYC- or HA-tagged (protein, UniProt Q92911 1-643)
chain: B1 chain with A525F

binding [5]: binds
B4: NIS T243A, MYC- or HA-tagged (protein, UniProt Q92911 1-643)
chain: B1 chain with T243A

binding [6]: binds
B5: NIS Y242A, cerulean- or citrine-tagged (protein, UniProt Q92911 1-643)
chain: B1 chain with Y242A

binding [7]: binds
B6: NIS Q471A, MYC- or HA-tagged (protein, UniProt Q92911 1-643)
chain: B1 chain with Q471A

binding [8]: binds
B7: NIS Q471A, cerulean- or citrine-tagged (protein, UniProt Q92911 1-643)
chain: B1 chain with Q471A

binding [9]: binds
B8: NIS D237A, cerulean- or citrine-tagged (protein, UniProt Q92911 1-643)
chain: B1 chain with D237A

binding [10]: binds
B9: NIS T243A, cerulean- or citrine-tagged (protein, UniProt Q92911 1-643)
chain: B1 chain with T243A

binding [6]: binds
binding [9]: binds
binding [11]: binds
B10: NIS A525F, cerulean- or citrine-tagged (protein, UniProt Q92911 1-643)
chain: B1 chain with A525F

binding [12]: binds
B11: NIS D237A, MYC- or HA-tagged (protein, UniProt Q92911 1-643)
chain: B1 chain with D237A
